This is one part of the list.
B1: il2ra_site1_2b5i_sap_8_mot_HHH_b2_07873_af2_000000005_0001_23_39_H_._HHH_b1_04022_0001_0000300020_0000001_0_0001 (protein)
chain: SSSSDDDELLVEAFIREVEELLKRGDPHRARSILHLARAVVKRLGNEELKEVLEELRKEIESSSS
B2: il2ra_site1_3nfp_normal_mot_HHH_b1_01335_af2_000000258_0001_39_53_H_._HHH_b1_05931_0001_0000500026_0000001_0_af2pred_0001_af2pred_swapped (protein)
chain: SSSSDVREEVEELLEEVEKLLKEGNPEEALRIIREAHKLAVEAGDEEALELVLKFLREVAKSSSS
B3: il2ra_site1_1z92_normal_mot_b1fbee8209167eaadba3689d49187f1a_0001_1_af2_000000019_0001_16_31_H_._2125cc8daba11e8455e4a581cdab7050_0001_af2_0001_0000100007_00000 … (protein)
chain: SAEEDLEQAEEIFGDPEKALKILVLIIADTHKVPPEEAIKRAKEVVRRLGDPELEELLEEIEKRL
B4: il2ra_site1_2b5i_normal_mot_HHH_b1_01419_af2_000000080_0001_42_53_H_._HHH_b1_05324_af2_0001_0000100004_0000001_0_af2pred_0001_af2pred_1 (protein)
chain: SSSSDEFERVFELFLQASRLFANGNPEEAREVVEEAIKLAREGGDEELEEQLEHFLRAIRGSSSS
B5: il2ra_site1_2b5i_sap_22_mot_HHH_b2_01283_af2_000000044_0001_1_16_H_._HHH_b1_00972_af2_0001_0000500028_0000001_0_0001 (protein)
chain: SSSSSDSREAIELFRKADELDRNGNPEEAREVLEQAEEIAEEAGSKSLLIMIRSALRSLDSSSSS
B6: il2ra_site2_2erj_sap_25_mot_HHH_b1_07741_000000192_0001_1_20_H_._8954e390f339e5555f03dd9a05a7d47e_0001_af2_0001_0000500014_0000001_0_0001 (protein)
chain: SSSSDEEEEKLEEFIERLVKELGLSEEQKEELEETLKIALERGVSPELIKRYLELAARDSSSSSS
B7: il2ra_site1_2b5i_sap_14_mot_0bad3e1dd0b580ac51794e340135530b_0001_af2_000000007_0001_1_12_H_._HHH_b2_03528_0001_0000500033_0000001_0_0001_af2pred_dldesign_0_af2 … (protein)
chain: SSSSDVEEQVEALLEEARRRKAAGEPLLARQLLTLARRLARKHKDPELIARVERVAAELGSSSSS
B8: il2ra_site1_3nfp_sap_11_mot_HHH_b2_05589_af2_000000060_0001_42_57_H_._HHH_b1_01268_0001_0000300020_0000001_0_0001_af2pred_0001_af2pred (protein)
chain: DELATELLRIAAEKNSELLLEKIVRDVLSRAGDPEEARKILEKLAELAGVPPEVEEKLEELLERR
B9: il2ra_site1_1z92_normal_mot_HHH_b2_05734_000000004_0001_1_18_H_._ad81070c4fcd12ba5f163adb410dbfa5_0001_af2_0001_0000200011_0000001_0_af2pred_0001_af2pred_1 (protein)
chain: SLEEELRRILKEAGLPPRQIEFLLRFAERRAGGDPREIIELLIRFLERSGDPEIAEELEKLLERT
B10: il2ra_site2_2erj_sap_14_mot_ems_3hC_936_0002_000000155_0001_4_19_H_._HHH_b1_05540_0001_0000300003_0000001_0_0001 (protein)
chain: SSSSSEELHRLYELANALLKLLTEGDEEEVEKVLKELEELAERADSPVAREIVESVRRKLSSSSS
B11: il2ra_site2_2erj_normal_mot_HHH_b1_03609_af2_000000077_0001_42_55_H_._HHH_b1_01470_af2_0002_0000600021_0000001_0 (protein)
chain: SSSSSEEVERLLKEAEELIERGNPEEAEEVLRRASELAFRLNDFELWSQISELLRELARLESSSS
B12: il2ra_site2_3nfp_sap_19_mot_HHH_b1_06158_af2_000000274_0001_1_17_H_._HHH_b1_07117_af2_0001_0000400020_0000001_0_0001 (protein)
chain: SSSSDVEELLREVEELLERGNLYEAAQVLMEASELAAKLGDPELARAVLELFKLLAERSRKSSSS
B13: il2ra_site2_2erj_sap_27_mot_HHH_b2_01204_af2_000000051_0001_19_34_H_._HHH_b1_08325_af2_0001_0000600012_0000001_1_0001 (protein)
chain: SSSSEDAQKAYELAREIDELLEEGDREEVEELLRELERIAEKLDSETLREAIENLEKQLEEASSS
B14: il2ra_site1_1z92_sap_17_mot_HHH_b1_01166_000000207_0001_22_38_H_._ems_3hC_185_af2_0001_0000100007_0000001_0_0001 (protein)
chain: SSSSDLEEIAEEIVKELVEEFGLSEHDEEALRKDAEAAVRLGFSPHSIELALRRAAERALSSSSS
B15: il2ra_site2_3nfp_normal_mot_HHH_b1_00005_000000120_0001_40_55_H_._HHH_b1_00556_0001_0000500030_0000001_0_af2pred_0001_af2pred (protein)
chain: SSSSDEEEREVRELIEQAEEARKEGDEKLLLRLLLRISKLVRELNNPELIELLLELIRKNQSSSS
B16: il2ra_site2_3nfp_sap_24_mot_HHH_b2_04927_af2_000000190_0001_39_52_H_._3c6ad1a4bc7d4f5cf55cee527202d42a_0001_af2_0001_0000900035_0000001_0_0001 (protein)
chain: DSLEELAREAREEGDPALLDAVTWAIVLEEQGVPPERIEKMVRYYLEALGVPPEEIEEILELLKK
B17: il2ra_site1_3nfp_normal_mot_HHH_b2_03135_af2_000000097_0001_42_55_H_._HHH_b2_03971_0001_0000400033_0000001_0 (protein)
chain: SSSSTEEFHHLAKLADEAYRALKEGNEEEVEKLLEEARKLAEELNDKIARRLLRQIEERLSSSSS
B18: il2ra_site1_3nfp_normal_mot_HHH_b2_03135_af2_000000097_0001_42_55_H_._HHH_b1_04523_0001_0000500034_0000001_0 (protein)
chain: SSSSDAAREFQELVRELIKLIKEGDEERARELLERLEQIVEERNDRIAKRLLRQLEEAVESSSSS
B19: il2ra_site2_3nfp_normal_mot_HHH_b1_00050_000000292_0001_22_38_H_._HHH_b2_04788_0001_0000100005_0000001_0 (protein)
chain: SSSSDLEEEAERLLLEAYRLLLEGNPERARELLEEAEELAREGGDEVLLRQIEWALEALRNSSSS
B20: il2ra_site1_2b5i_sap_13_mot_HHH_b2_06656_af2_000000038_0001_1_15_H_._HHH_b2_05528_0001_0000200016_0000001_0_0001_af2pred_dldesign_0_af2pred (protein)
chain: SSSSSSEAERLFLEANELHQAGKEEEAKKKLEEALKLAKAAKQNSLARAIESALSNFLESSSSSS
B21: il2ra_site2_2erj_sap_15_mot_HHH_b1_04373_af2_000000118_0001_18_33_H_._HHH_b2_01250_0001_0001100009_0000001_1_0001 (protein)
chain: SSSDLEEVTKEYVERAEELGNPLLARFLERLLEDAEKLGLSEEELRRILEASFRAVEEADKSSSS
B22: il2ra_site2_3nfp_sap_27_mot_HHH_b2_00444_000000178_0001_41_57_H_._HHH_b2_01308_af2_0001_0000100001_0000001_0_0001 (protein)
chain: SSSSDEEEEEVEELLKRIKELIENGNPEEARRLLRRVAQLAFKLNNAELFFRVAELLYELASSSS
B23: il2ra_site2_2erj_sap_28_mot_3b06bd03f1c6bceadc68eab912867b79_0001_000000296_0001_36_50_H_._HHH_b2_02223_0001_0000100001_0000001_0_0001 (protein)
chain: SSSSDVEELLKEIEELLRRGDEEEAEKLLFEAAELAFEKNDFELFNEVAELMREIDQLAVSSSSS
B24: il2ra_site2_2erj_sap_27_mot_HHH_b2_06206_af2_000000254_0001_22_39_H_._HHH_b1_04273_0001_0000200004_0000001_0_0001_af2pred_0001_af2pred (protein)
chain: SSSSSSDEEEEVRELLEEAKRIKDQREAYKVLEEAARLAEELDDPELFEEVTRVARKLSSSSSSS
B25: il2ra_site2_2erj_sap_25_mot_HHH_eva_0050_af2_000000198_0001_43_62_H_._HHH_b1_06648_af2_0001_0000100003_0000001_0_0001 (protein)
chain: SSSSSEKLHRLYELANILMRLVFEGDEEEFEEVLREAQEIAEELNSDNAQEFLEALKRQLSSSSS
B26: il2ra_site1_1z92_sap_30_mot_HHH_b1_01467_000000208_0001_22_39_H_._HHH_b2_06894_0001_0000200004_0000001_0_0001_af2pred_0001_af2pred_1 (protein)
chain: SSSSSEEERFARLAVKIAVEAAGLSEEQEKILQEVAEELLEEGVDLREIARILEEVALELASSSS
B27: il2ra_site2_3nfp_sap_27_mot_HHH_b1_05437_000000005_0001_40_57_H_._HHH_b2_08365_0001_0000100002_0000001_0_0001 (protein)
chain: SSSSSDEEVRRRVEELLEEAERVDEEERKELLAEAVRLAYELGDPELFFLIAEVAYRLASSSSSS
B28: il2ra_site2_3nfp_sap_12_mot_HHH_b1_00062_000000286_0001_1_17_H_._84ae4b0559e896e2d49ce04ad7058360_0001_0001_0000400013_0000001_0_0001 (protein)
chain: SSSSSKREEYLEVAVELLEEALEEGDEEIARKLLEVVEAAAESANDDEIERRLEEIRELLSSSSS
B29: il2ra_site1_1z92_normal_mot_934a834d9b8b770824478def2ff2f329_0001_af2_000000088_0001_15_30_H_._HHH_b1_06795_af2_0001_0000300026_0000001_0_af2pred_0001_af2pred (protein)
chain: SSSSSEEEEELKRFIEELVREFGLSESDKNQLELMAERALEQGLDDEAIKRDLKRLAEHLSSSSS
B30: il2ra_site2_3nfp_normal_mot_HHH_b1_04781_af2_000000057_0001_1_18_H_._HHH_b1_02713_0001_0000300026_0000001_0 (protein)
chain: SSSSDEEEFAEESIRLAEESAHALRDEELLERLKELLEQLEKEGDPRYALEAYALLREAYGSSSS
B31: il2ra_site1_3nfp_sap_19_mot_HHH_b1_05070_af2_000000282_0001_43_57_H_._HHH_b1_03343_0001_0000500027_0000001_1_0001_af2pred_0001_af2pred_1_swapped (protein)
chain: THLWKRAIEHIRKIDEELAELLEQVYELLKEKGDPELKRLLEEALRLLAKGNPEEAKEVLREALK
B32: il2ra_site2_2erj_normal_mot_HHH_b2_02252_af2_000000112_0001_23_39_H_._HHH_b2_01784_0001_0000800041_0000001_0 (protein)
chain: SSSSSDIEEEVEELIEEAKRIEDEEEALEVLRRAFELAFHLGNQELASEIIELAAELAKGSSSSS
B33: il2ra_site2_3nfp_sap_18_mot_HHH_b1_07052_000000239_0001_40_58_H_._HHH_b1_02131_0001_0000100001_0000001_0_0001_af2pred_0001_1_af2pred_swapped (protein)
chain: SSSSSTREEVEELLEEVERLIKEGDEEEAEEALREASKLAIEANDEELLLAVLRLLEELLSSSSS
B34: il2ra_site2_3nfp_normal_mot_HHH_b2_05281_000000198_0001_39_56_H_._HHH_b1_05110_0001_0000300018_0000001_0 (protein)
chain: SSSSDKEEERVEKLLEELKRLIEEGDDEEAQRLIAEAVHLIFELRDSELFYRLAELAYKLWSSSS
B35: il2ra_site1_2b5i_sap_13_mot_HHH_b2_04274_000000042_0001_1_19_H_._HHH_b1_01105_af2_0001_0000800037_0000001_0_0001_af2pred_dldesign_0_af2pred (protein)
chain: SSSSSPLEEKIAKLIEEARRLHAAGKRREALKLLEEAYKLASANDDEERQEEIEKLARELSSSSS
B36: il2ra_site1_2b5i_sap_9_mot_HHH_b1_00095_000000042_0001_1_14_H_._HHH_b1_08235_0001_0000300017_0000001_0_0001_af2pred_dldesign_0_af2pred (protein)
chain: SSSSSMSAKEYIDAVLEEAAKLEDPLERRRLLLLALRYAKKKNEPELEKEIEARLKELESSSSSS
B37: il2ra_site1_3nfp_normal_mot_40e86e4e32a25ee6cbb7392bdf050625_0001_1_000000004_0001_1_15_H_._98c316dcd33a4a4659f1bb01e8c35f85_0001_0001_0000300030_0000001_0_af2p … (protein)
chain: SELLERLIREAYERGNVEEYARHLLETLEKLLGDPEEAKEELERLLEEALGDPELSKELIERVEK

These binders were tested against il2ra, P01589 (assay: yeast display titration).

Apparent Kd, inactive:
B1 no binding seen
B2 no binding seen
B3 no binding seen
B4 no binding seen
B5 no binding seen
B6 no binding seen
B7 no binding seen
B8 no binding seen
B9 > 279 nM
B10 no binding seen
B11 no binding seen
B12 no binding seen
B13 no binding seen
B14 no binding seen
B15 no binding seen
B16 no binding seen
B17 no binding seen
B18 no binding seen
B19 no binding seen
B20 no binding seen
B21 no binding seen
B22 no binding seen
B23 > 523 nM
B24 no binding seen
B25 no binding seen
B26 no binding seen
B27 no binding seen
B28 no binding seen
B29 no binding seen
B30 no binding seen
B31 > 341 nM
B32 no binding seen
B33 no binding seen
B34 no binding seen
B35 no binding seen
B36 no binding seen
B37 no binding seen

A stretch taken from the entries so far, for reference:
Apparent Kd, inactive:
B10 no binding seen
B11 no binding seen
